Data source: PubChem BioAssay AID1259266 (Sanger Institute, 2017)
In all, the deposit lists 794 reagents; shown is a part drawn at random. 16 of all reagents (2%) were called active. 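Calls reflect knock-down alone, not drug synergy; viability seems capped at 1 and z-scores at 0.585.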 Not stated in the record: the amount of reagent, the time to read-out.

- Test: 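Find knock-downs that kill LS123 cells or act with anchor drugs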 (primary screen)
- System: LS123 human colorectal cancer cells
- Reagents: siRNA pool against human genes
- Conditions: anchor drugs BYL719 (1 µM), cetuximab (5 µg/ml) or trametinib (10 nM), each chosen to barely slow growth alone; DMSO vehicle as the drug-free arm
- Detection: 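Replicate-averaged viability scaled to non-targeting pools, robust z-score for siRNA alone, and a synergy score per anchor drug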
- Direction: robust z-score, knock-down alone: higher = more cells surviving after knock-down; viability, knock-down alone: higher = more viable cells; synergy score with trametinib and synergy score with BYL719 and synergy score with cetuximab: higher = stronger synthetic lethality with drug
- Active means: 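a knock-down counts as essential if its z-score without drug is under -3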
- Calls: active = essential (knock-down alone cuts viability); inactive = no change

| Target gene | PubChem SID | robust z-score, knock-down alone | viability, knock-down alone (fraction of control) | synergy score with trametinib | synergy score with BYL719 | synergy score with cetuximab | Call |
| --- | --- | --- | --- | --- | --- | --- | --- |
| MKNK1 (MAPK interacting serine/threonine kinase 1) | SID135620901 | 0.585 | 1 | -0.0138 | -0.082 | -0.0122 | inactive |
| BMAL1 (basic helix-loop-helix ARNT like 1) | SID134314841 | -2.38 | 0.824 | -0.0584 | -0.0283 | -0.0754 | inactive |
| BRD3 (bromodomain containing 3) | SID135620912 | 0.585 | 1 | -0.186 | -0.159 | -0.0122 | inactive |
| HIPK3 (homeodomain interacting protein kinase 3) | SID152151658 | 0.585 | 1 | -0.00887 | -0.0183 | -0.0122 | inactive |
| STK32B (serine/threonine kinase 32B) | SID56478812 | 0.585 | 1 | -0.159 | -0.0904 | -0.0122 | inactive |
| MVK (mevalonate kinase) | SID56479115 | 0.585 | 1 | -0.145 | -0.0577 | -0.0122 | inactive |
| TWF2 (twinfilin actin binding protein 2) | SID56478547 | 0.484 | 0.994 | 0.0595 | -0.047 | 0.0476 | inactive |
| TP53RK (TP53 regulating kinase) | SID135620611 | -0.612 | 0.929 | -0.0782 | -0.196 | -0.0623 | inactive |
| NRAS (NRAS proto-oncogene, GTPase) | SID134310164 | 0.289 | 0.982 | -0.0453 | -0.0783 | -0.0296 | inactive |
| AK7 (adenylate kinase 7) | SID152153423 | 0.0762 | 0.97 | -0.175 | 0.0144 | -0.00684 | inactive |
| SPEG (striated muscle enriched protein kinase) | SID56479185 | -0.365 | 0.944 | -0.15 | -0.12 | -0.0679 | inactive |
| RPS6KC1 (ribosomal protein S6 kinase C1) | SID135620976 | 0.585 | 1 | -0.102 | -0.159 | -0.0122 | inactive |
| ROCK1 (Rho associated coiled-coil containing protein kinase 1) | SID152156760 | 0.585 | 1 | -0.124 | -0.0799 | -0.0122 | inactive |
| PRKCZ (protein kinase C zeta) | SID56478675 | 0.0147 | 0.966 | -0.135 | -0.0545 | -0.0221 | inactive |
| DGKI (diacylglycerol kinase iota) | SID56479093 | 0.585 | 1 | -0.14 | -0.159 | -0.0122 | inactive |
| TAOK2 (TAO kinase 2) | SID57288958 | 0.585 | 1 | -0.133 | -0.136 | -0.0122 | inactive |
| CAMK1G (calcium/calmodulin dependent protein kinase IG) | SID56478930 | 0.585 | 1 | -0.0102 | -0.126 | -0.0122 | inactive |
| LRRK1 (leucine rich repeat kinase 1) | SID135620970 | 0.585 | 1 | -0.0801 | -0.0763 | 0.044 | inactive |
| NR2F2 (nuclear receptor subfamily 2 group F member 2) | SID134309873 | -0.104 | 0.959 | -0.142 | -0.0818 | 0.00798 | inactive |
| EIF2AK2 (eukaryotic translation initiation factor 2 alpha kinase 2) | SID56478676 | 0.585 | 1 | -0.108 | -0.159 | -0.0122 | inactive |
| CALM3 (calmodulin 3) | SID152148336 | 0.149 | 0.974 | 0.0692 | -0.0138 | 0.00459 | inactive |
| ARAF (A-Raf proto-oncogene, serine/threonine kinase) | SID152151166 | 0.585 | 1 | -0.0921 | -0.111 | -0.0122 | inactive |
| FASTK (Fas activated serine/threonine kinase) | SID56479004 | -0.337 | 0.945 | -0.139 | -0.15 | -0.0663 | inactive |
| PFKFB4 (6-phosphofructo-2-kinase/fructose-2,6-biphosphatase 4) | SID152152940 | 0.27 | 0.981 | 0.0169 | -0.0893 | 0.116 | inactive |
| NME1 (NME/NM23 nucleoside diphosphate kinase 1) | SID56479166 | 0.585 | 1 | -0.183 | -0.138 | -0.0122 | inactive |
| CLSPN (claspin) | SID134310856 | 0.00826 | 0.966 | -0.0372 | -0.0437 | -0.00124 | inactive |
| MAP3K3 (mitogen-activated protein kinase kinase kinase 3) | SID56478641 | -0.657 | 0.926 | 0.0357 | -0.0414 | 0.109 | inactive |
| MOK (MOK protein kinase) | SID56478889 | 0.585 | 1 | -0.072 | -0.0647 | -0.0122 | inactive |
| ITSN1 (intersectin 1) | SID135621555 | 0.17 | 0.975 | -0.0512 | -0.146 | 0.000608 | inactive |
| KMT2B (lysine methyltransferase 2B) | SID134314396 | -0.148 | 0.957 | -0.0183 | -0.0881 | -0.0428 | inactive |
| GK (glycerol kinase) | SID56479100 | 0.585 | 1 | -0.038 | -0.159 | -0.0122 | inactive |
| MAP4K1 (mitogen-activated protein kinase kinase kinase kinase 1) | SID56478699 | 0.585 | 1 | -0.0545 | -0.0544 | 0.0136 | inactive |
| RPS6KB2 (ribosomal protein S6 kinase B2) | SID152153683 | 0.456 | 0.992 | -0.078 | -0.0856 | -0.0198 | inactive |
| CAMKV (CaM kinase like vesicle associated) | SID135620973 | -0.405 | 0.941 | -0.0702 | -0.0233 | 0.0652 | inactive |
| RNASEL (ribonuclease L) | SID56478962 | 0.585 | 1 | -0.1 | -0.143 | -0.0122 | inactive |
| PKIB (cAMP-dependent protein kinase inhibitor beta) | SID56479212 | 0.585 | 1 | -0.0696 | -0.145 | -0.0122 | inactive |
| SPHK2 (sphingosine kinase 2) | SID56478885 | 0.585 | 1 | -0.0944 | -0.0472 | -0.0122 | inactive |
| PRAG1 (PEAK1 related, kinase-activating pseudokinase 1) | SID152147410 | -0.00245 | 0.965 | 0.0738 | 0.00155 | 0.0626 | inactive |
| MAP3K10 (mitogen-activated protein kinase kinase kinase 10) | SID56478692 | 0.585 | 1 | -0.135 | -0.159 | -0.0122 | inactive |
| GOLGA5 (golgin A5) | SID134315128 | 0.585 | 1 | -0.143 | -0.132 | -0.0122 | inactive |
| DAPK1 (death associated protein kinase 1) | SID135620826 | 0.585 | 1 | -0.136 | -0.107 | 0.024 | inactive |
| SMAD4 (SMAD family member 4) | SID134310148 | 0.585 | 1 | 0.0015 | -0.152 | -0.0122 | inactive |
| PCBP1 (poly(rC) binding protein 1) | SID134316528 | 0.356 | 0.986 | -0.0871 | -0.0649 | -0.0257 | inactive |
| TGFBR2 (transforming growth factor beta receptor 2) | SID152152630 | 0.585 | 1 | -0.03 | -0.0415 | 0.0114 | inactive |
| PIK3R5 (phosphoinositide-3-kinase regulatory subunit 5) | SID152147687 | 0.131 | 0.973 | -0.0044 | -0.084 | 0.0237 | inactive |
| HIPK1 (homeodomain interacting protein kinase 1) | SID135620891 | 0.585 | 1 | -0.124 | -0.159 | -0.0122 | inactive |
| PSKH1 (protein serine kinase H1) | SID135620975 | 0.585 | 1 | -0.0873 | -0.159 | -0.0122 | inactive |
| TAB1 (TGF-beta activated kinase 1 (MAP3K7) binding protein 1) | SID135620883 | 0.585 | 1 | -0.114 | -0.155 | -0.0122 | inactive |
| NRK (Nik related kinase) | SID152149639 | -0.252 | 0.95 | -0.039 | -0.0162 | -0.0304 | inactive |
| CAMK2N1 (calcium/calmodulin dependent protein kinase II inhibitor 1) | SID152156102 | -1.63 | 0.868 | -0.126 | -0.02 | -0.119 | inactive |
